Test results published in patent US20220273810A1 (IMCARE BIOTECH, published 2022).
Results are given in words; binding and its absence hold for the method and conditions named. Some binding calls cover weakened binding; strength is not graded here.

Columns and labels:
Conditions in all cases: remark: other sources report otherwise
[1] = biological target: T1, AS-SPIK (Abnormal Secreted serine protease inhibitor Kazal) (Homo sapiens (Human)), P00995; experiment: test of monoclonal antibodies of FIG. 1 (described in Example 1)
T1 chain: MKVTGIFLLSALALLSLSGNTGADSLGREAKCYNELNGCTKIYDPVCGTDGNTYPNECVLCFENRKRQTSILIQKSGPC

[2] = biological target: T1, AS-SPIK (Abnormal Secreted serine …); experiment: sandwich ELISA, S2-3 medium, complex captured on polyclonal anti-SPIK plate
[3] = biological target: T1, AS-SPIK (Abnormal Secreted serine …); experiment: ELISA on a plate immobilised with partially purified AS-SPIK from S2-3 cells, OD450nm; antibody concentration not given
[4] = biological target: T1, AS-SPIK (Abnormal Secreted serine …); experiment: ELISA, plate-immobilized partially purified AS-SPIK from S2-3 cells

Measured: binding

B1: IM-A1 (antibody, V domains shown)
VH: QSVKESEGGLFKPTDTLTLTCTVSGFSLSSNAISWVRQAPGNGLEWIGAIGSSGSTYYASWAKSRSTVTRNTNLNTVTLKMTSLTAADTATYFCARWENIGYTNVRLDLWGQGTLVTVSSGQPKAPSVFPLAPCCGDTPSS
VL: AYDMTQTPASVEVAVGGTVTIKCQASQSISTALAWYQQKPGQPPKLLIYGASTLASGVSSRFKGSGSGTQFTLTISGVECADAATYYCQQGYSTSDVDNAFGGGTEG
binds: all assays above

B2: IM-B10 (antibody, V domains shown)
VH: QSVKESEGGLFKPTDTLTLTCTVSGFSLSSYGVSWVRQAPGKGLEWIGSIWSGGTTDYASWAKSRSTITRNTNENTVTLKVTSLTAADTATYFCARGGYDYGYASNIWGPGTLVTVSSGQPKAPS
VL: AYDMTQTPASVEVAVGGTVTIKCQASESISSYLSWYQQKPGQPPKLLIYRASTLASGVPSRFSGSGSGTEFTLTISDGQCDDAATYYCQQGYSVSNVDNIFGGGTEVVVKGDPVAPTVLIFPPSAD
binds: all assays above
